According to paper PMC7819943, “Rice protein-binding microarrays: a tool to detect cis-acting elements near promoter regions in rice”:
This is one part of the list.

The sequences below were run against T1, OsSMF1 (Oryza sativa, UniProt Q6ZLB0 1-436) (assay: protein-binding microarray (RPBM); PBS, 2% BSA, 51.3 ng/ul salmon testes DNA, 50 uM zinc acetate, 200 nM TF, 25 C, 1 h; high values mean tight binding). Conditions: protein: recombinant; tags: N-terminal polyhistidine and DsRed monomer fusion (pET32a); chain copies: 2; label: CyDye5-dUTP incorporated in the synthesized complementary strand; 3' TTTTT single-stranded linker to array surface; dsDNA, one strand shown.
T1 sequence: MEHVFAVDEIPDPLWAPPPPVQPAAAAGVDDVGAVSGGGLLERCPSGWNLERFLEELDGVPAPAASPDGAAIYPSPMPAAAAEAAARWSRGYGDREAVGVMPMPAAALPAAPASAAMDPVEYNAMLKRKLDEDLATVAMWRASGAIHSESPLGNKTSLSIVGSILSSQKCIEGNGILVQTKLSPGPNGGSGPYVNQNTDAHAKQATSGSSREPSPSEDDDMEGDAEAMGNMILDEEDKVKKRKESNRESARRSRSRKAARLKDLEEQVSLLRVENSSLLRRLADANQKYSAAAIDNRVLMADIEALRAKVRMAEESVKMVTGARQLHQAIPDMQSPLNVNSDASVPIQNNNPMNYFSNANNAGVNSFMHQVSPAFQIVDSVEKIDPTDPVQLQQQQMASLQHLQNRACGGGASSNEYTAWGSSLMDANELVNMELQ
Method in brief: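 The binding signal is fluorescence intensity per feature, in arbitrary units, read on an Axon 4000B scanner. Polyhistidine- and DsRed-tagged transcription factors (N-terminal fusions) from E. coli BL21-CodonPlus were purified on Ni–NTA and applied at 200 nM for 1 h at 25 °C to a double-stranded, BSA-blocked custom Agilent array in buffer with 50 µM zinc acetate.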

Going from “CGCCGTCGCCGTCGCGCTCATCCACGTCACCATGGACGAACGGAGTCACCTAGTGCAG” to “TGAGCGGCTATCCTCCCACGATAGCCACGTGGCCGCAATCCGGAGTCACCTAGTGCAG”, the binding signal falls from 25300 fluorescence intensity (a.u.) to 12500 fluorescence intensity (a.u.).

Compared with “TCTTTGTGTTTCCATCCAGTGAACCCCACCTCATCATTCTCGGAGTCACCTAGTGCAG”, “ATACCATTAGTATATATATTATGCACGTCAGCTTTTAGCTCGGAGTCACCTAGTGCAG” is higher in binding signal: 3810 fluorescence intensity (a.u.) for the first, 11900 fluorescence intensity (a.u.) for the second.

Compared with “TTGTTGTGTATGTTTCCAATCGGTTCGTTTGCAACGCATACGGAGTCACCTAGTGCAG”, “CCACACATCTCTCTTCCACCTAGTTTACTTCGACCTGGGCCGGAGTCACCTAGTGCAG” is higher in binding signal: 3140 fluorescence intensity (a.u.) for the first, 3150 fluorescence intensity (a.u.) for the second.

Going from “GAGACAGAATCCCTACTCCAGTTGTCATCACTGTATCAGACGGAGTCACCTAGTGCAG” to “GTGGCACGTGGTTACACGTGAGGAAGATGTGTCTTGTGGGCGGAGTCACCTAGTGCAG”, the binding signal rises from 4020 fluorescence intensity (a.u.) to 6180 fluorescence intensity (a.u.).

Compared with “TGCTTGCTACTAGCGAGACAACGAAGAAATCAGAGGATTTCGGAGTCACCTAGTGCAG”, “ACTTTCACAGCCCCTGGTGGCCAGCCCATTAGGCAGCCCACGGAGTCACCTAGTGCAG” is higher in binding signal: 3520 fluorescence intensity (a.u.) for the first, 4650 fluorescence intensity (a.u.) for the second.

Compared with “CACGCCAGATCGGGATCGAGGTGTCATTAGGGTTTTCTTGCGGAGTCACCTAGTGCAG”, “GGAAAGTGATGTCACATCTAACCAATAGCAGCTTAGTCCTCGGAGTCACCTAGTGCAG” is higher in binding signal: 4150 fluorescence intensity (a.u.) for the first, 14500 fluorescence intensity (a.u.) for the second.

First: ACCGAAGCGCCGACGTCAGCACAGAGCGTGTTCGCCTCGACGGAGTCACCTAGTGCAG
Second: GACAAGGCCTACCCAGTACCCACCTCACCCTGCCCTGCCACGGAGTCACCTAGTGCAG
The binding signal of the first is higher: 7170 fluorescence intensity (a.u.) for the first, 4470 fluorescence intensity (a.u.) for the second.

First: AGCCGTACAACGTCATCCGGTTCTTCTTCCTCGCGCAGAACGGAGTCACCTAGTGCAG
Second: CTTCGAGCTGTTAGATGACAAAGCTGACTCCACAACTTTTCGGAGTCACCTAGTGCAG
The binding signal of the first is lower: 3430 fluorescence intensity (a.u.) for the first, 6340 fluorescence intensity (a.u.) for the second.

First: GATCACCTGCACCAGCAATGGCAACGCAAGCAAATCACAGCGGAGTCACCTAGTGCAG
Second: TCCGGCGCCGCACTCCGCCACGGATTCCAGCTCGGCGAGTCGGAGTCACCTAGTGCAG
The binding signal of the first is lower: 3200 fluorescence intensity (a.u.) for the first, 3730 fluorescence intensity (a.u.) for the second.

First: TGGAGTCGCTTGCGTCGCAAGCGAAGCCGGCGGCCGTGCTCGGAGTCACCTAGTGCAG
Second: ACTTAACTGATCAGTAGCTACAAATGCTGACACAGCTAGGCGGAGTCACCTAGTGCAG
The binding signal of the first is higher: 15500 fluorescence intensity (a.u.) for the first, 5020 fluorescence intensity (a.u.) for the second.

First: ATCAAACACACTGAGTAGCAAACCGACCTCCGCAGCTTCACGGAGTCACCTAGTGCAG
Second: TAGAGTTGCCGATGCGCTCCACGTTGGTTTCCTTAAACCGCGGAGTCACCTAGTGCAG
The binding signal of the first is lower: 3370 fluorescence intensity (a.u.) for the first, 3520 fluorescence intensity (a.u.) for the second.

Going from “TGCTGGCCTTTGGGATGACTGTATTGGTAATATGTGATCACGGAGTCACCTAGTGCAG” to “TGAGCAGCTGACTGAATGTTCTTCTAATTTTGTTAATTGGCGGAGTCACCTAGTGCAG”, the binding signal falls from 6830 fluorescence intensity (a.u.) to 3800 fluorescence intensity (a.u.).

Compared with “ACCAACGGTCTGACATCATTTCTAGATAGGACTTTGGTTGCGGAGTCACCTAGTGCAG”, “CCATTCAAACGGTCATCATCGTCATCTATATCTATACTAACGGAGTCACCTAGTGCAG” is lower in binding signal: 4880 fluorescence intensity (a.u.) for the first, 3340 fluorescence intensity (a.u.) for the second.

Going from “TTGATACTACTTTGTGATGTCATTGAGACAATATGGCATACGGAGTCACCTAGTGCAG” to “AAGTGGGGAGGTACTACACGCACGATCGAGAAAACACACCCGGAGTCACCTAGTGCAG”, the binding signal falls from 3800 fluorescence intensity (a.u.) to 3280 fluorescence intensity (a.u.).

Compared with “ACGATTTAGACAATGACATGATTTATAAAATATATCCTTGCGGAGTCACCTAGTGCAG”, “TCGTCGTCGTCGTCGTCGTCGCGCGCCCCACGAACCCTATCGGAGTCACCTAGTGCAG” is lower in binding signal: 4060 fluorescence intensity (a.u.) for the first, 3230 fluorescence intensity (a.u.) for the second.

First: AATGATCTTAATAACGTGACGTGACTCTTACAGTATGTAACGGAGTCACCTAGTGCAG
Second: CTTCCTGTCTCACGATAGCACGCACTAGTCAGATTTTACGCGGAGTCACCTAGTGCAG
The binding signal of the first is higher: 4880 fluorescence intensity (a.u.) for the first, 3650 fluorescence intensity (a.u.) for the second.

Going from “AGGTGGAGGCGCCGGTGTGGGTGGTGGAGCGGGAGGAGGTCGGAGTCACCTAGTGCAG” to “TCACACGGTTTTCGGTTGATGCCATGGTAACCGTCTTGCTCGGAGTCACCTAGTGCAG”, the binding signal falls from 4096 fluorescence intensity (a.u.) to 3210 fluorescence intensity (a.u.).

First: CCCATCTCCGACTCGGATTACACGTAGGCGCGCGCCTATTCGGAGTCACCTAGTGCAG
Second: CGCGTGCATTTGCATCGTCGTTGTGTCATGTCGTCAAGCTCGGAGTCACCTAGTGCAG
The binding signal of the first is higher: 4800 fluorescence intensity (a.u.) for the first, 4500 fluorescence intensity (a.u.) for the second.

First: CCAGACGAGATCCACGCAGCATGTTCCTCTCTATTTCTTTCGGAGTCACCTAGTGCAG
Second: GCAACAAACAAAATAACATAATATTATTCCGGACGTTATGCGGAGTCACCTAGTGCAG
The binding signal of the first is higher: 3820 fluorescence intensity (a.u.) for the first, 3350 fluorescence intensity (a.u.) for the second.

Going from “CCCCTACGCGCACAAGGGGTTGATGCGCACCCGCAAGAAGCGGAGTCACCTAGTGCAG” to “CCACGCCGCGATATGCACACGCAGCACACGCGCCGCCAGCCGGAGTCACCTAGTGCAG”, the binding signal falls from 13700 fluorescence intensity (a.u.) to 3420 fluorescence intensity (a.u.).

First: ATATGCGGACGCGGCACGCGGCATATGCGTCGCTCCCGGCCGGAGTCACCTAGTGCAG
Second: TGTCAAAGAAGCTCACCTACCTACACATCAATTCAGTTTACGGAGTCACCTAGTGCAG
The binding signal of the first is lower: 4010 fluorescence intensity (a.u.) for the first, 8000 fluorescence intensity (a.u.) for the second.

First: CCCAGCCGCGTCGCTCACTGTTTTCCTCCACCGCCGCAGTCGGAGTCACCTAGTGCAG
Second: AAACTTATTTGGCCATGGTGTCATCGGGGTTGGCGTTTAGCGGAGTCACCTAGTGCAG
The binding signal of the first is lower: 3570 fluorescence intensity (a.u.) for the first, 3860 fluorescence intensity (a.u.) for the second.

Going from “TCAACTAGTTAGTATGGGCACATTTATAGTAATCTCTAGCCGGAGTCACCTAGTGCAG” to “TCTATCCGGGTATATCCCACCAACCAATCACACCCCAAGCCGGAGTCACCTAGTGCAG”, the binding signal rises from 3190 fluorescence intensity (a.u.) to 3420 fluorescence intensity (a.u.).

Going from “AATCGGTTTGAAAGCTTGTGTGTGTCTACTAGATACCAGGCGGAGTCACCTAGTGCAG” to “GAAGACGTTTAGGACAATGTTTAAGTCAAACCTTGGGAATCGGAGTCACCTAGTGCAG”, the binding signal rises from 3530 fluorescence intensity (a.u.) to 9300 fluorescence intensity (a.u.).

First: CGATAACAGCTTGCATTGCTTGTCATTTGAAAGATCAGCTCGGAGTCACCTAGTGCAG
Second: AGACAGCTGTTGCCTTTAGACTTTACAGCTGGGACTTTAACGGAGTCACCTAGTGCAG
The binding signal of the first is higher: 3630 fluorescence intensity (a.u.) for the first, 3580 fluorescence intensity (a.u.) for the second.

Compared with “ATGTCCGGCCATCTCCTCAAGGTCACGCTTGCGTCCTCCCCGGAGTCACCTAGTGCAG”, “TAAACCGATACATAACACTTGATAAAAGTGACACGGCAGCCGGAGTCACCTAGTGCAG” is higher in binding signal: 3190 fluorescence intensity (a.u.) for the first, 5430 fluorescence intensity (a.u.) for the second.

Going from “AGCCGTGCTGTGTCGTGTCGTGCACTCGTGCGTATGCCGTCGGAGTCACCTAGTGCAG” to “CTGGAGAGATGGCGTCGAGTACCAGCGACATCCCCGAGGGCGGAGTCACCTAGTGCAG”, the binding signal rises from 3520 fluorescence intensity (a.u.) to 16700 fluorescence intensity (a.u.).
